The list shows a part of the results.

Protein sequences, listed by entry. Tags and fused reporters are not part of them. Lines headed by an entry give the natural chain unless they say otherwise; changes in a name come on top.
UniProt Q8WU17: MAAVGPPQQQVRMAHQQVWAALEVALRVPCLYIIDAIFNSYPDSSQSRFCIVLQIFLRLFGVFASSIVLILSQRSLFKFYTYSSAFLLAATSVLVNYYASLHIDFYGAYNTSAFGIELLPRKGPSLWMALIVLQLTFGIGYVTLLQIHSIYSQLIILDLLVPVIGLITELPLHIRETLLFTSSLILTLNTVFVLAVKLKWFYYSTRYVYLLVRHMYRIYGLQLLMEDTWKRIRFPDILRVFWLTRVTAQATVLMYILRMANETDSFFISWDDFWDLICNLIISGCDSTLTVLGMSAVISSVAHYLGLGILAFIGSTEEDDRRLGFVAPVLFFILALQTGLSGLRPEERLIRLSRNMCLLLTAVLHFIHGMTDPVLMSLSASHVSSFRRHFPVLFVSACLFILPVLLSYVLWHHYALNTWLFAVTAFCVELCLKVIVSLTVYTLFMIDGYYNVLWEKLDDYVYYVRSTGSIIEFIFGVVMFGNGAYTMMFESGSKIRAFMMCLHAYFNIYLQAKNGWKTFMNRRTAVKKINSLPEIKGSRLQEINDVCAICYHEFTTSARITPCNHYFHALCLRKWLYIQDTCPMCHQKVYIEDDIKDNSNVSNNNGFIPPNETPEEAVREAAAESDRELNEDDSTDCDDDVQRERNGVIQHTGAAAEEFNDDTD
UniProt O43566: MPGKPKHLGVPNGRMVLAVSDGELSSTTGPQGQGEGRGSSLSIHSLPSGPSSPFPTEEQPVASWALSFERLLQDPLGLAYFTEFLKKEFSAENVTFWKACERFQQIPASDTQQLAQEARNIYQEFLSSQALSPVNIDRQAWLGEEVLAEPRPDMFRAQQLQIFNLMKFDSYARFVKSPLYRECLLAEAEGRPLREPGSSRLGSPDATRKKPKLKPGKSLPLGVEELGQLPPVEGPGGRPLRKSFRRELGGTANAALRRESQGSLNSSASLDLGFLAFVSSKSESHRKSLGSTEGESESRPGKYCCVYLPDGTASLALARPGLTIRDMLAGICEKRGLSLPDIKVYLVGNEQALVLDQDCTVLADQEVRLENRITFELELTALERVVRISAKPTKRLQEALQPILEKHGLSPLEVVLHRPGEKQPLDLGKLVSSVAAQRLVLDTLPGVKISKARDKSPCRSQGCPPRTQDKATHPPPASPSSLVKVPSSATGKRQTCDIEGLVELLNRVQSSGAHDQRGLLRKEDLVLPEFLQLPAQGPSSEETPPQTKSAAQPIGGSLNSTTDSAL
UniProt Q6NTF9: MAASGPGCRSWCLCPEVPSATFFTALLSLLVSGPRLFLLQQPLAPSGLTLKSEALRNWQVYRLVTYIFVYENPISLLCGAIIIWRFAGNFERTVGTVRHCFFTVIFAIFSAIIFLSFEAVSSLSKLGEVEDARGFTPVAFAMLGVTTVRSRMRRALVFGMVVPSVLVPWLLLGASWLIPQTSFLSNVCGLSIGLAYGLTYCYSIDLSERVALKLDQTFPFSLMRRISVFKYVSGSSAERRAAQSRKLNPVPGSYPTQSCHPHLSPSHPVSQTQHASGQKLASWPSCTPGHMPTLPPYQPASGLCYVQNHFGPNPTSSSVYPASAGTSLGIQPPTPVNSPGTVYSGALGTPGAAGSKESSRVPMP
UniProt Q5EBL4: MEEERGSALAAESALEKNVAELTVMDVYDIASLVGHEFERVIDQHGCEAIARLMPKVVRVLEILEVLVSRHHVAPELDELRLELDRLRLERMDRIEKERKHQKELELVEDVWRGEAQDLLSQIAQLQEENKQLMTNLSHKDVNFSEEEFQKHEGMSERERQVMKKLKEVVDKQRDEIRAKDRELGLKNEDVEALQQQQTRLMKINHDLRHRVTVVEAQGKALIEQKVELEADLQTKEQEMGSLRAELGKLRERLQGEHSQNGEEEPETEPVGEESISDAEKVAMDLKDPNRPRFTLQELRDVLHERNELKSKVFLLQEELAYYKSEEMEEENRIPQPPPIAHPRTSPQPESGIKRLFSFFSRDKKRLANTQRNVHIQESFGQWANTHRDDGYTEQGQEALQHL
UniProt Q02161: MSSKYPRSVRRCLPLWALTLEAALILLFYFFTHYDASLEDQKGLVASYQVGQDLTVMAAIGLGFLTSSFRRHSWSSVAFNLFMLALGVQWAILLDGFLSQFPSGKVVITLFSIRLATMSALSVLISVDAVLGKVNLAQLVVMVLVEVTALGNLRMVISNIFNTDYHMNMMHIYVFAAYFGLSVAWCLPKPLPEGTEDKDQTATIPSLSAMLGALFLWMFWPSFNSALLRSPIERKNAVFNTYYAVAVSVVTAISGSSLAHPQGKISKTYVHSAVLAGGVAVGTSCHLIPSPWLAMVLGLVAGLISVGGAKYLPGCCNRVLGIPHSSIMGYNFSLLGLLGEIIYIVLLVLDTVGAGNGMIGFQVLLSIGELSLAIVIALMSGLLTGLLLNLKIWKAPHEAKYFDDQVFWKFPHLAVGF
UniProt Q8IUF8: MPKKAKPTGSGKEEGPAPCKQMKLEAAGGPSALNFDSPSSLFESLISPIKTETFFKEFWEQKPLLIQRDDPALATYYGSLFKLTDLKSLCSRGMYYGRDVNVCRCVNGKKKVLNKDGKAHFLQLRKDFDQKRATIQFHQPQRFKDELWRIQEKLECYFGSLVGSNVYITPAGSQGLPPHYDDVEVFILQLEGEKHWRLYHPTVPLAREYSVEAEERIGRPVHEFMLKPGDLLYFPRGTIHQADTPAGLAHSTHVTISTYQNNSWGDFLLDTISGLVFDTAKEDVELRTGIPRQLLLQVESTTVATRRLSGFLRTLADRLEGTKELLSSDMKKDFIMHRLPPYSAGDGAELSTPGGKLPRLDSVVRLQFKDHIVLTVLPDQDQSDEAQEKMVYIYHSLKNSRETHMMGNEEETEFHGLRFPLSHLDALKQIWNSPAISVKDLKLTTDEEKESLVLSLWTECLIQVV
UniProt Q96E14: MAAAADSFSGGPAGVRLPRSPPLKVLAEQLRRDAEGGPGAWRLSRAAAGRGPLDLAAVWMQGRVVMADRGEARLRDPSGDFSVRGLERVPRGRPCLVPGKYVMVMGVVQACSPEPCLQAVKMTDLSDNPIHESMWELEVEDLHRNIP
UniProt P48382: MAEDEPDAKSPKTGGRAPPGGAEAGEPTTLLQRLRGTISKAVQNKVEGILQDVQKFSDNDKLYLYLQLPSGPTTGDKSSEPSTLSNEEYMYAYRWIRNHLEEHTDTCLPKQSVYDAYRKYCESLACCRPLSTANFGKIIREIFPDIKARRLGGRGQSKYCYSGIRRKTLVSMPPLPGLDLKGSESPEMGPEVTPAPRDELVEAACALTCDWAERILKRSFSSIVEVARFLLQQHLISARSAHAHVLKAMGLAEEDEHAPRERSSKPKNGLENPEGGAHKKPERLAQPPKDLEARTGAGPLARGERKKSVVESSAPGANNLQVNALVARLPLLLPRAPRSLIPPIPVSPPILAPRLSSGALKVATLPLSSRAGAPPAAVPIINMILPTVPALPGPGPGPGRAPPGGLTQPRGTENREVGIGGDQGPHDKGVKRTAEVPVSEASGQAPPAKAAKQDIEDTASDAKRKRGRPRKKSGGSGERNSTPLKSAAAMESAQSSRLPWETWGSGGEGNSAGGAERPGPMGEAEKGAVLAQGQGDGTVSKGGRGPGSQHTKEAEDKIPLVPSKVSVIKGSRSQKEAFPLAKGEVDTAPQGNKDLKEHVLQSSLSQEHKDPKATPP
UniProt Q96A37: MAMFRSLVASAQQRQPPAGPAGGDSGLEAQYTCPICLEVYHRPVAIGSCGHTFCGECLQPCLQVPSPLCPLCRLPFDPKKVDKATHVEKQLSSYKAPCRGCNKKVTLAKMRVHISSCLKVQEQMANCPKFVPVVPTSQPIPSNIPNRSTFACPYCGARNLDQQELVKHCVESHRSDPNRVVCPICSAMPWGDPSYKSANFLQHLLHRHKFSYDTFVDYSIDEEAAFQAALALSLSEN
UniProt Q5RL73: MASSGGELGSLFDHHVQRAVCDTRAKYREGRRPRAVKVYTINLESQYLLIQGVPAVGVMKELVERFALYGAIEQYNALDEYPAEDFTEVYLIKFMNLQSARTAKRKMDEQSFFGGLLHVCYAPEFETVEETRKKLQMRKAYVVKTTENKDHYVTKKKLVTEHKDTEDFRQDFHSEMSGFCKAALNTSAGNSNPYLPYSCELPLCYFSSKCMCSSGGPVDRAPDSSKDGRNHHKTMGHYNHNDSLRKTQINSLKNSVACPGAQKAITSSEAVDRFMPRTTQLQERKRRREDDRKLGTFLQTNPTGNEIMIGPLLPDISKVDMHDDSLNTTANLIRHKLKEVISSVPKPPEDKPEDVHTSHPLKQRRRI
UniProt Q8WVD5: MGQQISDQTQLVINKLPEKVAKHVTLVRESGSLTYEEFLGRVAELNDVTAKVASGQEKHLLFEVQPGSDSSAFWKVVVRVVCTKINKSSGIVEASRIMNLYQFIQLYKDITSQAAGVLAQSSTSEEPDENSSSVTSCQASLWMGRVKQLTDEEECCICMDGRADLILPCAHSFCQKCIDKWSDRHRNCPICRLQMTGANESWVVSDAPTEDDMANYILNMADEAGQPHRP
UniProt Q92546: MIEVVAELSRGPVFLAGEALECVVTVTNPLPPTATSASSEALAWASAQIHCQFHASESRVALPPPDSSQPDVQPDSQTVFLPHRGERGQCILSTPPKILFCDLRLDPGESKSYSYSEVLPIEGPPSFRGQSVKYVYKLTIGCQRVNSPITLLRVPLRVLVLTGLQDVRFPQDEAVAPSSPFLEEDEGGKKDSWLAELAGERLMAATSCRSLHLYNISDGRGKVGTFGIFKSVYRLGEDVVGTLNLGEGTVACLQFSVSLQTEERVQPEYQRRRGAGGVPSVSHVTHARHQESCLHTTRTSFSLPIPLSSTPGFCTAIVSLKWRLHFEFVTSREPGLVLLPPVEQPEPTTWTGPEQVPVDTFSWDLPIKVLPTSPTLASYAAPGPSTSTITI
UniProt Q9H4X1: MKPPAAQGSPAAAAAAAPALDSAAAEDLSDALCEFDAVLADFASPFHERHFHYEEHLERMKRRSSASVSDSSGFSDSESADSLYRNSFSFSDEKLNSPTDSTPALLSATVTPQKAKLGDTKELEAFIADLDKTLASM
UniProt Q9P2R6: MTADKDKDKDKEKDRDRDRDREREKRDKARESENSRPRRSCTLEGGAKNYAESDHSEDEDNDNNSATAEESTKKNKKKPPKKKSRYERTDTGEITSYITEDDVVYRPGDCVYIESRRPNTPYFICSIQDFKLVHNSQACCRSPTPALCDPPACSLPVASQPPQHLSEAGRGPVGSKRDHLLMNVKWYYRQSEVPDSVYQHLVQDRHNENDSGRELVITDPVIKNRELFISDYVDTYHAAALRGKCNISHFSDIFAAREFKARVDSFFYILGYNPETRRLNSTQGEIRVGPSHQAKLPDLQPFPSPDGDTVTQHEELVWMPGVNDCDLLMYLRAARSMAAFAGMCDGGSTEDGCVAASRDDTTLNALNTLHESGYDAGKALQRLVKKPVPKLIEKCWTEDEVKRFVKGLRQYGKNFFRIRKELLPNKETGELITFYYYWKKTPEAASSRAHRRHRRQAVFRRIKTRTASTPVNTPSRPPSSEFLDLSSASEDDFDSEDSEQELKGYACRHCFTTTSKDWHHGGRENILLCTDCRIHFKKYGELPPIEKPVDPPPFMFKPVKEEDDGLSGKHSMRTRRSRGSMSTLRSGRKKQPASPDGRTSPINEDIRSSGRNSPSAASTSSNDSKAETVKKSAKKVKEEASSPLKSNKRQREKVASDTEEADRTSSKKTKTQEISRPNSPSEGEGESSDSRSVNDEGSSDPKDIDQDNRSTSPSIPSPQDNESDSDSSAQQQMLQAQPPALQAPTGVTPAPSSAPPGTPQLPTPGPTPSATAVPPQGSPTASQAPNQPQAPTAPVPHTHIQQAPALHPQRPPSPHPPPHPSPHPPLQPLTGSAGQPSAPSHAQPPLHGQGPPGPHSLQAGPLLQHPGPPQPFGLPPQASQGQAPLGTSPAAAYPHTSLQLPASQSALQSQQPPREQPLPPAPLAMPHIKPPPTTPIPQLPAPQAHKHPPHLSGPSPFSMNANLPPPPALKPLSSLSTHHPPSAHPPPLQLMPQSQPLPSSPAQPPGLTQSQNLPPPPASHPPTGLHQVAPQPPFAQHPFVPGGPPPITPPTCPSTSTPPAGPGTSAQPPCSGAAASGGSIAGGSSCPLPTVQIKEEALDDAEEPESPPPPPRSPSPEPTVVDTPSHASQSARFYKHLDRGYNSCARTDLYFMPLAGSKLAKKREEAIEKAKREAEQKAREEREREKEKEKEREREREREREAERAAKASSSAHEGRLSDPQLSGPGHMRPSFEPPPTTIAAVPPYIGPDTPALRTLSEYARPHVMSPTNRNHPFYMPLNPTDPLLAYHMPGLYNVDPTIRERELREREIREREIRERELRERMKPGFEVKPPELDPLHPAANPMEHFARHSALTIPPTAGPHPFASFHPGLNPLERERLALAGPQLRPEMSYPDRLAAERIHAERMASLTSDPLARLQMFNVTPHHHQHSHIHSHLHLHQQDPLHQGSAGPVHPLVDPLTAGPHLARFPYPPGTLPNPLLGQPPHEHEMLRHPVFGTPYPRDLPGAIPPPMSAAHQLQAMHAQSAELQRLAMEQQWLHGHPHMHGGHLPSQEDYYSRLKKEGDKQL

Compound in one assay: CC[C@@H]1C(=O)N(C)c2cnc(Nc3ccc(C(=O)NC4CCN(C)CC4)cc3OC)nc2N1C1CCCC1
Briefly: log2 fold change, soluble protein after heating vs DMSO (PISA); higher = thermal stabilisation; K562 cells, 10 uM, 30 min; active = over 0.2 and 3.5 SD of the protein, either way, in both replicates (recomputed). Put shortly: (§1)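 Soluble protein was quantified by TMTpro 16plex LC-MS/MS after channel sums were equalised. It was obtained as the supernatant after 21,000xg for 90 min from pooled aliquots of K562 cells (2×10^6 cells/mL, 10 μM compound, 30 min) heated for 3 min across 48°C-58°C and extracted in PBS with 0.5% NP-40 at 4°C. Thermal stability values are relative to control samples and come from duplicates. They are given as log2 fold changes.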
Consider RNF139 (UniProt Q8WU17), for which the log2 fold change is inactive: -0.073.
Same read-out and setting: to RGS14 (UniProt O43566) belongs inactive: 0.
With RIOX1 (UniProt Q9H6W3), the log2 fold change is inactive: 0.247.
The same measure, in the same setting: with RHBDD2 isoform 2 (UniProt Q6NTF9) the figure was inactive: -0.043.
In the case of RBP4 (UniProt P02753), the log2 fold change was inactive: -0.154.
Still for that read-out and setting: to RNF13 (UniProt O43567) belongs inactive: 0.043.
As to RILPL1 (UniProt Q5EBL4), the log2 fold change is inactive: -0.039.

Compound in another assay: CC[C@@H]1C(=O)N(C)c2cnc(Nc3ccc(C(=O)N[C@H]4CC[C@H](N5CCN(CC6CC6)CC5)CC4)cc3OC)nc2N1C(C)C [volasertib]
The description is as above. Put shortly: as §1
On to RNF168 (UniProt Q8IYW5), for which the log2 fold change was inactive: -0.108.
Still for that read-out and setting: to RBM6 (UniProt P78332) belongs inactive: -0.148.
Same read-out and setting: to RHD (UniProt Q02161) belongs inactive: 0.073.
Same read-out and setting: with RHOXF2B (UniProt P0C7M4) the figure was inactive: 0.128.
In the case of RNF220 isoform 3 (UniProt Q5VTB9), the log2 fold change was inactive: -0.31.
Regarding RIOX2 (UniProt Q8IUF8), the log2 fold change is inactive: 0.084.
In the case of RMI2 (UniProt Q96E14), the log2 fold change was inactive: -0.23.
The same measure, in the same setting: to RFX5 (UniProt P48382) belongs inactive: -0.076; to RNF166 (UniProt Q96A37), inactive: -0.182.
Same read-out and setting: with RC3H2 (UniProt Q9HBD1) the figure was inactive: 0.094; with RNF169 (UniProt Q8NCN4), inactive: -0.036.
As for RNF167 (UniProt Q9H6Y7), the log2 fold change was inactive: 0.003.
Take RBM48 isoform 2 (UniProt Q5RL73): the log2 fold change was inactive: -0.003.
The same measure, in the same setting: with RNF141 (UniProt Q8WVD5) the figure was inactive: 0.154; with RFWD3 (UniProt Q6PCD5), inactive: 0.183.

Compound in a further assay: CC[C@H](C)N1C=C(C2=C(C=C(C=C21)C3=CN=C(C=C3)N4CCNCC4)C(=O)NCC5=C(C=C(NC5=O)C)C)C
The assay is described as above. The method in brief: as §1
Take RNF139 (UniProt Q8WU17): the log2 fold change was inactive: -0.084.
Same read-out and setting: with RNF168 (UniProt Q8IYW5) the figure was inactive: -0.388; with RNF111 isoform 3 (UniProt Q6ZNA4), inactive: 0.024.
Same read-out and setting: with RGS14 (UniProt O43566) the figure was inactive: -0.098.
On the same count and under the same terms, with RBM6 (UniProt P78332) the figure was inactive: 0.094; with RHD (UniProt Q02161), inactive: 0.094; with RMDN2 isoform 2 (UniProt Q96LZ7), inactive: 0.068.
For the target RNF115 (UniProt Q9Y4L5), the log2 fold change was inactive: 0.156.
Same read-out and setting: with RGP1 (UniProt Q92546) the figure was inactive: 0.089.
For RHBDD2 isoform 2 (UniProt Q6NTF9), the log2 fold change is inactive: 0.179.
The same measure, in the same setting: to RGCC (UniProt Q9H4X1) belongs inactive: -0.416.
On the same count and under the same terms, to RIOX2 (UniProt Q8IUF8) belongs inactive: 0.071; to RFX5 (UniProt P48382), inactive: 0.082.
Still for that read-out and setting: to RNF167 (UniProt Q9H6Y7) belongs inactive: -0.043; to RBM48 isoform 2 (UniProt Q5RL73), inactive: 0.002.
For RNF141 (UniProt Q8WVD5), the log2 fold change was inactive: 0.134.
For RERE (UniProt Q9P2R6), the log2 fold change is inactive: -0.049.

Compound in a further assay: CC[C@H](C)[C@@H](C(=O)N[C@@H]([C@@H](C)O)C(=O)N[C@@H](CC(C)C)C(=O)[C@]1(CO1)C)NC(=O)[C@H]([C@@H](C)CC)N(C)C(=O)C [epoxomicin]
Described as above. The method in brief:
as §1
Turning to RNF139 (UniProt Q8WU17), the log2 fold change is inactive: -0.027.
The same measure, in the same setting: to RGS14 (UniProt O43566) belongs inactive: -0.06; to RGP1 (UniProt Q92546), inactive: -0.249; to RFXANK (UniProt O14593), inactive: 0.108.
On the same count and under the same terms, to RHBDD2 isoform 2 (UniProt Q6NTF9) belongs inactive: -0.068; to RIOX2 (UniProt Q8IUF8), inactive: 0.087.
The same measure, in the same setting: with RFX5 (UniProt P48382) the figure was inactive: -0.173; with RC3H2 (UniProt Q9HBD1), inactive: -0.22.
As to RILPL2 (UniProt Q969X0), the log2 fold change was inactive: -0.042.
On the same count and under the same terms, to RCBTB1 (UniProt Q8NDN9) belongs inactive: 0.334; to RNF13 (UniProt O43567), inactive: -0.099; to RNF167 (UniProt Q9H6Y7), inactive: 0.039.
RCL1 (UniProt Q5VZU2): the log2 fold change is inactive: -0.118.
Same read-out and setting: with RIC8B isoform 1 (UniProt Q9NVN3) the figure was inactive: 0.074; with RBM48 isoform 2 (UniProt Q5RL73), inactive: 0.003.
Same read-out and setting: with RIT1 isoform 3 (UniProt Q92963) the figure was inactive: 0.104; with RERE (UniProt Q9P2R6), inactive: 0.088.
On the same count and under the same terms, with RILPL1 (UniProt Q5EBL4) the figure was inactive: -0.045; with RIPOR1 isoform 4 (UniProt Q6ZS17), inactive: 0.111; with RFWD3 (UniProt Q6PCD5), inactive: 0.09.

Compound in another assay: CCn1c(C(=O)N(C2CC2)C2CC2)cc2c3c(ncn3C)c(Nc3cc(C)n(C)n3)nc21
Described as above. The method in brief:
as §1
As to RNF139 (UniProt Q8WU17), the log2 fold change is inactive: -0.016.
Same read-out and setting: to RNF168 (UniProt Q8IYW5) belongs inactive: 0.059.
Still for that read-out and setting: with RNF111 isoform 3 (UniProt Q6ZNA4) the figure was inactive: -0.084.
On the same count and under the same terms, to RGS14 (UniProt O43566) belongs inactive: -0.01; to RHD (UniProt Q02161), inactive: -0.129.
For the target RGP1 (UniProt Q92546), the log2 fold change is inactive: 0.038.
Same read-out and setting: with RHBDD2 isoform 2 (UniProt Q6NTF9) the figure was inactive: 0.026; with RGCC (UniProt Q9H4X1), inactive: 0.047.
On the same count and under the same terms, to RIOX2 (UniProt Q8IUF8) belongs inactive: 0; to RBP4 (UniProt P02753), inactive: 0.129.
Consider RFX5 (UniProt P48382), for which the log2 fold change was inactive: -0.138.
Consider RNF166 (UniProt Q96A37), for which the log2 fold change was inactive: 0.004.
Same read-out and setting: with RCBTB1 (UniProt Q8NDN9) the figure was inactive: -0.051; with RIC8B isoform 1 (UniProt Q9NVN3), inactive: 0.187.
Still for that read-out and setting: with RIT1 isoform 3 (UniProt Q92963) the figure was inactive: 0.01; with RNF141 (UniProt Q8WVD5), inactive: -0.08.
On the same count and under the same terms, to RERE (UniProt Q9P2R6) belongs inactive: -0.019; to RILPL1 (UniProt Q5EBL4), inactive: -0.028; to RFWD3 (UniProt Q6PCD5), inactive: 0.23.

The values above are taken from the supplement of paper PMC10849652.
